Laboratory results from PMC9552611, “MtTRC-1, a Novel Transcription Factor, Regulates Cellulase Production via Directly Modulating the Genes Expression of the Mthac-1 and Mtcbh-1 in Myceliophthora thermophila”.
For part of these data: Where a protein sequence is shown, tags need not be part of it. For part of these data: For at least one entry, the source does not settle the construct or the ends of the probe.

Target: T1, GST-MtTRC-1-DBD (Myceliophthora thermophila ATCC 42464) (UniProt G2Q031)
T1 sequence (looked up): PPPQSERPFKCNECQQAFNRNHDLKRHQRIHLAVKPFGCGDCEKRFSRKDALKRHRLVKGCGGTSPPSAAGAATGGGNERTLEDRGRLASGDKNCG
Experiment: EMSA
Settings: EMSA: 20 mM Tris-base pH 7.5, 20 mM KCl, 10 mM MgCl2, 2 mM DTT, 0.5 ug/uL BSA, 0.2 mg/mL fish sperm DNA, 5% glycerol, 25 C 30 min, 10 ng probe; gel 5% PAGE 0.5x TBE 4 C; recombinant protein; residues 355-450; protein details: GST (N-terminal, pGEX-4T-1); label: Cy5; probe letters rebuilt from the primers and the genome

Sequence	binding result
GGTATCATTACGAGAGGTACTGTACAACGAGGTTCCGTACCGTGGGAGACGGGCCGCGGGCCGTCGATGCTCAAACAAGACGAGTGTGCCAGTCAGCCATCGAATGATGGGTCGTCATGGACAACGGAGCAATGCCATCTCGGGACTGGGGCCACCGACCTGCCGGCAGGGGGAGGAGAAAAAAAAGGGGGCGGCGTCGGCAAGATGGCAAGAGGTCTGGGAGATAGTCAAGGACGAAGGGCCAAGCGGGTCGTGTCGCTTGCACTCTGGTGAGGCTCGCTAGTGCTTGCGGTGGGTGAGGTGGATCAGAGTAGAGG (double strand) [Mtcbh-1-P2]	binds
AACCGGGTACCTGGTGCCATCTTCAATATACTTGGGAATGCAGCCGCGGTGATTGTCGGTCTGGGCGCAACCTCATCGGCGTTGGCGGGCGATCAGCAGGTGCAACGGGGGGTGCAAACCGGGAAATGAGAAGAGCCCAGACCAACGAGGACCGCGGCATCGACCTCCGATCACCCTAAGTTGGGCCTAGTGCCGCCCCACCAAGGAACGGACCAGGGTAGTTTGCTCCTCCCGATCACTGGTAGTCGTGCCACAGTGCAGCGCATTCAAGGGCAAGCCGCTTTCCCAAATAGAGCAGGAAGGGCTGGTTTCAA (double strand) [Mtcbh-1-P6]	binds
CACTCTGGTGAGGCTCGCTAGTGCTTGCGGTGGGTGAGGTGGATCAGAGTAGAGGCCCGATGGAGAATGGGCGCTGCGGTGACAAGCCTAACCGGTCGATAGCGGCTAGTAGGCTGGGCGGCGATGTCACGTTATGGTTGCCACGGCCGGGCACGGACTGAGGGCATCGTTCGAGGACGTGGAGCCGTGCGATGGAAGCGATTAAGGTTGCTGAAGGGTCGGCGAGGGCAACCACACACCTCATTGGAGGAGTCTGGGCGCGGCAGCCAGGTTATCAGGGGTGACACGGAAGGCGTCCGCCGAGTGCGACTCTGCGAAGCCCAGG (double strand) [Mtcbh-1-P3]	binds
CATTCGGCATTGCAGCGGACCGCATCGTCCGCAAAGGCGGAGGCCGGGAAAGTTTCCCGTCTTTGAACTGAATGTAGTGTCTCGTCAATTTTGTTGGCGATGGTGTCGAGCTGATGACGGTGCAGTACGGACAATACTGCACTACGGATTAAAGACGTGTGGAATCATAGTTACTGCAACATGCCAAAACACGCAGTCAGTGGTCTTAATCGGCAAGACATGAAAGCATTCAAGGCTGAGCAATATGGATGTGTTTTACGACCGTTCTGTCTGTCCGCGGCTTGACTTGTGGGCGTTTCTAGCCTTCTTTTTCTGGAAGTGCCAAACCTACATACATACATTCCACCTCCCAGATCTGGGAGTTGCAAAAGGGGCGCAAGGGGCGCCAAGGGGGGGCATCCATCTCCATTTCAGGGGTTACTTCC (double strand) [Mthac-1-P7]	binds
ATCTCGGGACTCGCACGACGTAGGAGGACTTATTAGTGCTTTCTGCAAATGGACCGGTGGTTTCTTCTCCTGCCAGGCTGAATAACGGCTGACAAGAGGGCGGTCGGGTGTGATGTGCAGAGCAGTATTATTGTATTGACCGTATCGAGGCGCCTTCCCAATTCCTCAATACTTGTATGTCAGGGAACAAAAGCGTCAAGGGAGTTGCATTGCGCGTGACGAGTCTGTCAAGTTGGCTCGGCCAGCACTGACGACTCGAGCGAACAGCTGGTTGGCTGCGTTGGCGAAGAGGACAGTCTGGCTTCTTTGCTGGGCAAGGAAGGTTCCTGTTCGAATGATGAGGGCTCCAGGCT (double strand) [Mthac-1-P1]	binds
AGCGAGATCCGTTGCGAAGGGAAGGGATGGGGTGTGCTGCGGCTTTCTCCGCTCTCGTGCGCCTTTTGCTTGAATCTAGTGTACACCAGGGTAGGCTCCGAAGGAGTATCTACGGCAGCGCTGTTCGTGCTGCGTTGAGAGTCAGGGCGGAGACGAGCAGGCGACAGGAGCCTCGCACCGGCACTTCGGATCGCATTTGCGCGGAGCGTCAAATACGCTCTTCTGCGGTCATCAGAGAGCATCGTGAACCAAGGTTCTTCCGCAGGGCGGCCTGGGCTTCGCAGAGTCGCACTCGGCGGACGCCTTCCGTGTCA (double strand) [Mtcbh-1-P4]	binds
TCAAACGGTCGGGCTGCTATTCCAAATATGTCCAAAACATGTTAGTGCACGCAAGACGATCGAGATCAGTGCTGTGAATTACAGCAGCAGCCGCAGCAGCATACACTTCTACACTTAGAAACTGTTGTGTAGCACAGCCGTCGTGTATGTATGCACAACACGAGCGTGGCGCACCCAGCGAAGTCAGCATTAGCTGGAGATTGGCGCACCATTGGCCCACACTCCGCGAGGTTGTCTGATTCAAGTCCGACCGCGTAAGACGTCGCCTTGCAAGCCTTCGTAAAAAAAAAAAAAAAGAGACGCCAAAGCGGCAGTGCAGAAAAGCGGGCACAACCTTAAC (double strand) [Mthac-1-P4]	binds

Target: T1, GST-MtTRC-1-DBD (Myceliophthora thermophila ATCC 42464)
Experiment: DNase I footprinting
Settings: Footprinting: 400 ng probe in 40 uL, 25 C 30 min; recombinant protein; residues 355-450; protein details: GST (N-terminal, pGEX-4T-1); label: FAM; probe letters rebuilt from the primers and the genome; part of a longer molecule

Sequence	binding result
GCAACATGCCAAAACACGCAGTCAGTGGTCTTAATCGGCAAGACATGAAAGCATTCAAGGCTGAGCAATATGGATGTGTTTTACGACCGTTCTGTCTGTCCGCGGCTTGACTTGTGGGCGTTTCTAGCCTTCTTTTTCTGGAAGTGCCAAACCTACATACATACATTCCACCTCCCAGATCTGGGAGTTGCAAAAGGGGCGCAAGGGGCGCCAAGGGGGGGCATCCATCTCCATTTCAGGGGTTACTTCCGGCGGCCGTTCGGTGGATGTTCCGAGACTTCTT (double strand) [Mthac-1-P7-FP (footprint probe)]	binds
TGGGCGGCGATGTCACGTTATGGTTGCCACGGCCGGGCACGGACTGAGGGCATCGTTCGAGGACGTGGAGCCGTGCGATGGAAGCGATTAAGGTTGCTGAAGGGTCGGCGAGGGCAACCACACACCTCATTGGAGGAGTCTGGGCGCGGCAGCCAGGTTATCAGGGGTGACACGGAAGGCGTCCGCCGAGTGCGACTCTGCGAAGCCCAGGCCGCCCTGCGGAAGAACCTTGGTTCACGATGCTCTCTGATGACCGCAGAAGAGCGTATTTGACGCTCCGCGCAAATGCGA (double strand) [Mtcbh-1-P4-FP (footprint probe)]	binds
